Laboratory results: the supplement of paper PMC12578635
Some of the results follow. Cut-off read from the data, not from the text of the source: active = 150% or more and inactive = the rest. Most values come without repeats; read them as rough.

test system: Staphylococcus aureus JE2-lux inside RAW 264.7 macrophages; experiment: intracellular bacterial bioluminescence relative to DMSO vehicle; higher = higher intracellular bacterial metabolic activity; settings: 10 µM; treatment time 4 h; gentamicin 50 µg/ml

Intracellular bacterial bioluminescence, inactive:
O=C(CSc1nc(-c2ccccc2)cc(=O)[nH]1)NCc1ccc(F)cc1 110%
CN1C(=O)c2cccc(NC(=O)c3cc(-c4cccs4)nc4ccccc34)c2C1=O 136%
CC(C)(C)c1cc(Br)ccc1OCC(=O)Nc1nnc[nH]1 112%
Cc1[nH]c2ccccc2c1CCNC(=O)c1ccc2nccnc2c1 115%
CCc1cc2cc3c(cc2n2c(=O)n(Cc4cscn4)nc12)OCO3 115%
Cc1cc(N2CCC(C(=O)Nc3cccc4ccccc34)CC2)n2ncnc2n1 101%
COc1cc(C)c(S(=O)(=O)Nc2cccc(-n3c(C)nc4ccccc4c3=O)c2)cc1C 110%
CC(C)N1C(=O)/C(=C2/C(=O)N(CC(=O)Nc3ccccc3F)c3ccccc32)SC1=S 88.7%
CC(=O)NNC(=O)CSc1nc2sc3c(c2c(=O)[nH]1)CCC(C(C)(C)C)C3 (configuration not stated) 81.7%
CCOc1ccc(OCC)c(NS(=O)(=O)c2ccc3onc(C(=O)N4CCCC4)c3c2)c1 48.8%
COc1cccc(-c2csc(/C(C#N)=C\Nc3ccc([N+](=O)[O-])cc3)n2)c1 110%
CC(=O)Nc1ccc2nc(C)n(CC(=O)Nc3ccc(F)cc3)c(=O)c2c1 96.4%
COc1cccc(NC(=O)CSc2nnc3ccccn23)c1 80.7%
COc1ccc(CCNC(=O)CSc2nc3sc4c(c3c(=O)[nH]2)CCC4)cc1OC 67.5%
CCn1cccc1-c1nc(C)c(C(=O)Nc2cc(C)cc(C)c2)s1 38.2%
COC(=O)c1cccc(Oc2nnc(-c3ccc(F)cc3)c3ccccc23)c1 22.3%
CCOc1ccc2[nH]c(=O)c(CN(Cc3cccnc3)C(=O)Nc3ccccc3F)cc2c1 103%
Fc1ccc(-c2csc3ncnc(NCC4CCCO4)c23)cc1 (configuration not stated) 66.5%
C=CCn1/c(=N/C(=O)CSCC(=O)N2CCN(C(=O)OCC)CC2)sc2cc(Cl)ccc21 45.8%
Cc1c(-c2n[nH]c(=S)n2C)sc2nc3n(c(=O)c12)CCC3 116%
Cc1nc2sc(C(c3cccs3)N3CCN(CCO)CC3)c(O)n2n1 (configuration not stated) 85.2%
CCn1nc(C)c(C(=O)NCCn2nc3c(C)cc4ccc(C)cc4n3c2=O)c1C 101%
COc1ccc(NC(=O)CSc2nc(=O)n(CCN3CCOCC3)c3c2CCC3)cc1OC 46.5%
CCOC(=O)c1ccccc1NC(=O)/C=C1/Nc2ccccc2NC1=O 88.7%
COc1ccc(NC(=S)N2CCC(n3cnc4ccccc43)CC2)c(OC)c1 110%
O=C(O)CCN1C(=O)/C(=C/c2cc([N+](=O)[O-])ccc2OCc2ccccc2Cl)SC1=S 111%
O=C(Nc1cc(Cl)cc(Cl)c1)c1ccc(S(=O)(=O)N2CCCCCC2)cc1 99.8%
O=C(NCc1ccc2[nH]c3c(c2c1)CCCC3)NC1CCCCC1 88.5%
O=C1c2oc3ccc(Cl)cc3c(=O)c2C(c2ccncc2)N1CCc1ccccc1 (configuration not stated) 83.1%
FC(F)(F)c1cccc(CSc2ncnc3ccccc23)c1 69.1%
CC(=O)c1ccc(NC(=O)CSc2nc(C)cc(C)c2C#N)cc1 31.1%
COc1c(C(=O)NC2CCCOC2)cnc2cc(Cl)ccc12 (configuration not stated) 63.7%
O=C1OCCC1Sc1nc2ccccc2c(=O)[nH]1 (configuration not stated) 120%
CCOCCn1ccc2c(OCC(=O)NCCc3ccc(OC)c(OC)c3)cccc2c1=O 120%
O=C(CC1NC(=O)NC1=O)Nc1ccc(F)cc1 (configuration not stated) 97.9%
CCOc1ccc(NC(=O)CCn2c(=S)[nH]c3ccccc3c2=O)cc1 109%
CCCSc1nc2c(c(=O)[nH]1)C(c1ccc(Cl)cc1)C1=C(CCCC1=O)N2 (configuration not stated) 96.2%
O=C(NCC(c1ccco1)N1CCc2ccccc21)C(=O)Nc1ccc([N+](=O)[O-])cc1 (configuration not stated) 100%
CCn1cc(C(=O)N2CCC(n3c(C)nc4sc(C)c(C)c4c3=O)CC2)c(C)n1 97.5%
C=CCOc1ccccc1NC(=O)c1cc2ncc(C(C)=O)c(C)n2n1 127%
COC(=O)c1ccc(NC(=O)CSc2nc3c([nH]2)c(=O)n(C)c(=O)n3C)cc1 101%
CCc1ccc(NS(=O)(=O)c2[nH]nc(C)c2C(=O)n2nc(C)cc2C)cc1 112%
O=C(Nn1cnc2c(cnn2-c2cccc(Cl)c2)c1=O)c1ccccc1C(F)(F)F 117%
C=CCOc1ccccc1NC(=O)c1cnc(C(C)(C)C)nc1 90.8%
Nc1c(C(=O)Nc2ccc(Oc3ccccc3)cc2)sc2nc3c(cc12)C(=O)CCC3 107%
COc1ccc(C2C(C#N)=C(N)SC3C(=O)N(c4ccc(C)cc4)C(=O)C32)cc1 (configuration not stated) 116%
Cc1csc(SCc2cc(=O)c(OC(=O)c3cc4ccccc4o3)co2)n1 95.1%
COc1cccc2cc(C(=O)C3=C(O)C(=O)N(CCCN(C)C)C3c3cccnc3)oc12 (configuration not stated) 92.9%
Cc1c(C)n2c(SCC(=O)N3CCc4ccccc43)nnc2[nH]c1=O 104%
COCCCNc1oc(-c2ccc([N+](=O)[O-])cc2)nc1C#N 105%
COc1ccc(CN(Cc2nc3ccccc3c(=O)[nH]2)C(=O)c2ccco2)cc1 76.1%
CCC(C(=O)N1CCN(C)CC1)n1cnc2c(sc3ncccc32)c1=O (configuration not stated) 79%
O=c1c2ccccc2nc2c(-c3nc(-c4ccc5c(c4)OCO5)no3)cccn12 114%
COc1ccc2c(c1)CCc1c(-c3nc(-c4ccc(Cl)cc4)no3)n[nH]c1-2 133%
Cc1oc(-c2ccno2)cc1S(=O)(=O)N1CCCc2ccccc21 72.5%
N#Cc1c(NC(=O)CC(=O)CSc2ncnc3sc4c(c23)CCC4)sc2c1CCCC2 94.3%
O=S(=O)(NCc1ccc(-c2nn3cnnc3s2)cc1)c1ccccc1 93.6%

4 structures from above, sorted by heavy-atom count, ascending:
Intracellular bacterial bioluminescence, inactive:
CC(C)(C)c1cc(Br)ccc1OCC(=O)Nc1nnc[nH]1 112%
Cc1[nH]c2ccccc2c1CCNC(=O)c1ccc2nccnc2c1 115%
O=C(CSc1nc(-c2ccccc2)cc(=O)[nH]1)NCc1ccc(F)cc1 110%
O=C(Nc1cc(Cl)cc(Cl)c1)c1ccc(S(=O)(=O)N2CCCCCC2)cc1 99.8%
